Source: US5856440 (dated 1999)

Assay: general procedure: Boc solid-phase peptide synthesis; Methylbenzhydrylamine (MBHA) resin, 0.40 mmol/g; DCC
Settings: whole synthesis, analytical HPLC (Hamilton PRP-1 reverse phase column), scale of the general procedure 1.00 g resin (0.40 mmol/g)

Substance: Leu-Ala-Gly-Val
- crude HPLC purity: about 98%
